Measurements reported in PMC7498313.
The exact form of at least one protein or probe is not confirmed. At least one verdict rests on a figure or table, not on a statement of the authors.

Protein sequences, listed by entry. Tags and fused reporters are not part of them. Lines headed by an entry give the natural chain unless they say otherwise; changes in a name come on top.
UniProt F0NHH1: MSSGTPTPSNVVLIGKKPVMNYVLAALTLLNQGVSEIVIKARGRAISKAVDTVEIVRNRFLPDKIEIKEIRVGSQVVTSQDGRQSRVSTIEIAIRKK

Molecular target: Sis10b wild-type (Sulfolobus islandicus REY15A) (UniProt F0NHH1)
Assay: EMSA
Details: 25°C, affinities similar to 55°C set, Kd only in figure; EMSA: 20 mM HEPES-NaOH pH 7.0, 1 mM DTT, 100 ug/ml BSA, 6% glycerol, 30 min at 25, 37 or 55°C; gel in 0.5x TBE at the same temperature; recombinant protein; label: 5' 32P on top strand

“GGUAAGAGCACCCGACUGCUCUUCC / GGAAGAGCAGUCGGGUGCUCUUACC [25-bp dsRNA]”: binds.
